# Literature values, collected in patent US20030152646A1, “Method of treating conditions caused by activated microglia” (priority 2001, published 2003).
# At least one compound was matched to its structure with a doubt left.
# Conditions: cited from earlier work
compound,measurement,value
"C[n+]1ccc(-c2c3nc(c(-c4cc[n+](C)cc4)c4ccc([n-]4)c(-c4cc[n+](C)cc4)c4nc(c(-c5cc[n+](C)cc5)c5ccc2[n-]5)C=C4)C=C3)cc1.[Cl-].[Fe+3] [FeTMPyP, 5,10,15,20-Tetrakis(N methyl-4′-pyridyl)porphinato iron (III) chloride]",second order reaction rate constant between peroxynitrite and FeTMPyP,5e+07 M⁻¹ s⁻¹
